{"source": "PubChem BioAssay AID1224828 | NIAID – 2016", "aim": "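Find genes required for NF-kappaB p65 moving into the nucleus after LPS in mouse macrophages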 (primary screen)", "cell system": "mouse RAW264.7 G9 macrophage reporter cells (GFP-p65, Tnf promoter-mCherry)", "reagents": "siRNA pool against mouse genes, 100 nM", "timing": "2 days siRNA transfection, then 40 min LPS before fixation", "conditions": "LPS (Salmonella minnesota R595) at 10 ng/ml", "measured": "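Microscopy ratio of nuclear to perinuclear-ring GFP-p65 signal, scaled to the plate median; gene score is the average of two replicate robust z-scores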", "direction": "p65 translocation robust z-score: higher = more nuclear NF-kappaB p65 after LPS than the plate median; nuclear/cytoplasmic p65 ratio: higher = more nuclear NF-kappaB p65", "hit rule": "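Active if robust z is above 3.3 (negative regulators) or below -1.56, the Tlr4 control median (positive regulators); activity score 50 or more; control wells not called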", "calls": "active = hit (p65 shift raised or lowered); inactive = no clear change", "note": "Shown is an unselected part of about 17,000 reagents. Over the whole deposit, 762 (4.5%) were called active. 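Active calls include both raised and lowered p65 entry, mostly lowered; wells with fewer than 50 cells lack a z-score.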 Raw values vary from plate to plate and are shown uncorrected. Reagents against one gene are numbered here. Some reagents were tested in more than one well and are listed for each."}
{"gene": "Sec62", "pool no.": 1, "nuclear/cytoplasmic p65 ratio, rep 1": 0, "nuclear/cytoplasmic p65 ratio, rep 2": 1.03, "low cell count flag": "fewer than 50 cells per well; well left out of scoring", "activity call": "inactive"}
{"gene": "Qtman", "pool no.": 1, "p65 translocation robust z-score": -0.07, "nuclear/cytoplasmic p65 ratio, rep 1": 1.46, "nuclear/cytoplasmic p65 ratio, rep 2": 1.35, "low cell count flag": "enough cells to score", "activity call": "inactive"}
{"gene": "Chrm2", "pool no.": 1, "p65 translocation robust z-score": -1.14, "nuclear/cytoplasmic p65 ratio, rep 1": 1.4, "nuclear/cytoplasmic p65 ratio, rep 2": 1.36, "low cell count flag": "enough cells to score", "activity call": "inactive"}
{"gene": "Sipa1l1", "pool no.": 1, "p65 translocation robust z-score": 0.29, "nuclear/cytoplasmic p65 ratio, rep 1": 1.4, "nuclear/cytoplasmic p65 ratio, rep 2": 1.33, "low cell count flag": "enough cells to score", "activity call": "inactive"}
{"gene": "Pisd", "pool no.": 1, "p65 translocation robust z-score": -0.63, "nuclear/cytoplasmic p65 ratio, rep 1": 1.33, "nuclear/cytoplasmic p65 ratio, rep 2": 1.47, "low cell count flag": "enough cells to score", "activity call": "inactive"}
{"gene": "Drd3", "pool no.": 1, "nuclear/cytoplasmic p65 ratio, rep 1": 1.61, "nuclear/cytoplasmic p65 ratio, rep 2": 1.14, "low cell count flag": "fewer than 50 cells per well; well left out of scoring", "activity call": "inactive"}
{"gene": "C8a", "pool no.": 1, "p65 translocation robust z-score": -0.13, "nuclear/cytoplasmic p65 ratio, rep 1": 1.56, "nuclear/cytoplasmic p65 ratio, rep 2": 1.62, "low cell count flag": "enough cells to score", "activity call": "inactive"}
{"gene": "Dpp6", "pool no.": 1, "p65 translocation robust z-score": -1.54, "nuclear/cytoplasmic p65 ratio, rep 1": 1.4, "nuclear/cytoplasmic p65 ratio, rep 2": 1.04, "low cell count flag": "enough cells to score", "activity call": "inactive"}
{"gene": "Dpp6", "pool no.": 2, "p65 translocation robust z-score": 0.27, "nuclear/cytoplasmic p65 ratio, rep 1": 1.62, "nuclear/cytoplasmic p65 ratio, rep 2": 1.52, "low cell count flag": "enough cells to score", "activity call": "inactive"}
{"gene": "Cntrl", "pool no.": 1, "p65 translocation robust z-score": 0.32, "nuclear/cytoplasmic p65 ratio, rep 1": 1.47, "nuclear/cytoplasmic p65 ratio, rep 2": 1.48, "low cell count flag": "enough cells to score", "activity call": "inactive"}
{"gene": "Susd3", "pool no.": 1, "nuclear/cytoplasmic p65 ratio, rep 1": 1.52, "nuclear/cytoplasmic p65 ratio, rep 2": 1.56, "low cell count flag": "fewer than 50 cells per well; well left out of scoring", "activity call": "inactive"}
{"gene": "Or6c208", "pool no.": 1, "nuclear/cytoplasmic p65 ratio, rep 1": 1.3, "nuclear/cytoplasmic p65 ratio, rep 2": 1.21, "low cell count flag": "fewer than 50 cells per well; well left out of scoring", "activity call": "inactive"}

Continued, starting with the last 2 of the part before.
{"gene": "Susd3", "pool no.": 1, "nuclear/cytoplasmic p65 ratio, rep 1": 1.52, "nuclear/cytoplasmic p65 ratio, rep 2": 1.56, "low cell count flag": "fewer than 50 cells per well; well left out of scoring", "activity call": "inactive"}
{"gene": "Or6c208", "pool no.": 1, "nuclear/cytoplasmic p65 ratio, rep 1": 1.3, "nuclear/cytoplasmic p65 ratio, rep 2": 1.21, "low cell count flag": "fewer than 50 cells per well; well left out of scoring", "activity call": "inactive"}
{"gene": "4930544M13Rik", "pool no.": 1, "nuclear/cytoplasmic p65 ratio, rep 1": 1.11, "nuclear/cytoplasmic p65 ratio, rep 2": 1.06, "low cell count flag": "fewer than 50 cells per well; well left out of scoring", "activity call": "inactive"}
{"gene": "Vmn1r237", "pool no.": 1, "p65 translocation robust z-score": -1.57, "nuclear/cytoplasmic p65 ratio, rep 1": 1.32, "nuclear/cytoplasmic p65 ratio, rep 2": 1.32, "low cell count flag": "enough cells to score", "activity call": "active"}
{"gene": "Pramel6", "pool no.": 1, "p65 translocation robust z-score": -0.52, "nuclear/cytoplasmic p65 ratio, rep 1": 1.32, "nuclear/cytoplasmic p65 ratio, rep 2": 1.15, "low cell count flag": "enough cells to score", "activity call": "inactive"}
{"gene": "Arhgap4", "pool no.": 1, "p65 translocation robust z-score": 0.21, "nuclear/cytoplasmic p65 ratio, rep 1": 1.71, "nuclear/cytoplasmic p65 ratio, rep 2": 1.6, "low cell count flag": "enough cells to score", "activity call": "inactive"}
{"gene": "D6Ertd160e", "pool no.": 1, "p65 translocation robust z-score": -1.91, "nuclear/cytoplasmic p65 ratio, rep 1": 1.25, "nuclear/cytoplasmic p65 ratio, rep 2": 1.32, "low cell count flag": "enough cells to score", "activity call": "active"}
{"gene": "Ralgds", "pool no.": 1, "p65 translocation robust z-score": 0.21, "nuclear/cytoplasmic p65 ratio, rep 1": 1.66, "nuclear/cytoplasmic p65 ratio, rep 2": 1.44, "low cell count flag": "enough cells to score", "activity call": "inactive"}
{"gene": "Cobll1", "pool no.": 1, "p65 translocation robust z-score": -0.26, "nuclear/cytoplasmic p65 ratio, rep 1": 1.53, "nuclear/cytoplasmic p65 ratio, rep 2": 1.76, "low cell count flag": "enough cells to score", "activity call": "inactive"}
{"gene": "Grk5", "pool no.": 1, "p65 translocation robust z-score": 0.53, "nuclear/cytoplasmic p65 ratio, rep 1": 1.92, "nuclear/cytoplasmic p65 ratio, rep 2": 1.34, "low cell count flag": "enough cells to score", "activity call": "inactive"}
{"gene": "Grk5", "pool no.": 1, "p65 translocation robust z-score": -0.49, "nuclear/cytoplasmic p65 ratio, rep 1": 1.36, "nuclear/cytoplasmic p65 ratio, rep 2": 1.52, "low cell count flag": "enough cells to score", "activity call": "inactive"}
